From the supplement of paper PMC12823440, “Inhibitors supercharge kinase turnover through native proteolytic circuits” (Nature, 2025)
This is one part of the list. Hit calls seldom repeat between salt and free forms of one compound.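 In K562 cells expressing nanoluciferase-fused kinases, luminescence was recorded at 4 h intervals between 2 and 18 h, normalized as percent of control with DMSO at 100% and a positive control at 0%. A significant (2 sigma) signal drop marks a time point as decreased. The authors' rule for a hit is not shown and takes in more than the number of time points.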

Sequences of proteins named here, by UniProt entry; tags and fusion partners are left off. A change or cut given only in a name is not applied to a line headed by its entry.
UniProt P00519, whole entry: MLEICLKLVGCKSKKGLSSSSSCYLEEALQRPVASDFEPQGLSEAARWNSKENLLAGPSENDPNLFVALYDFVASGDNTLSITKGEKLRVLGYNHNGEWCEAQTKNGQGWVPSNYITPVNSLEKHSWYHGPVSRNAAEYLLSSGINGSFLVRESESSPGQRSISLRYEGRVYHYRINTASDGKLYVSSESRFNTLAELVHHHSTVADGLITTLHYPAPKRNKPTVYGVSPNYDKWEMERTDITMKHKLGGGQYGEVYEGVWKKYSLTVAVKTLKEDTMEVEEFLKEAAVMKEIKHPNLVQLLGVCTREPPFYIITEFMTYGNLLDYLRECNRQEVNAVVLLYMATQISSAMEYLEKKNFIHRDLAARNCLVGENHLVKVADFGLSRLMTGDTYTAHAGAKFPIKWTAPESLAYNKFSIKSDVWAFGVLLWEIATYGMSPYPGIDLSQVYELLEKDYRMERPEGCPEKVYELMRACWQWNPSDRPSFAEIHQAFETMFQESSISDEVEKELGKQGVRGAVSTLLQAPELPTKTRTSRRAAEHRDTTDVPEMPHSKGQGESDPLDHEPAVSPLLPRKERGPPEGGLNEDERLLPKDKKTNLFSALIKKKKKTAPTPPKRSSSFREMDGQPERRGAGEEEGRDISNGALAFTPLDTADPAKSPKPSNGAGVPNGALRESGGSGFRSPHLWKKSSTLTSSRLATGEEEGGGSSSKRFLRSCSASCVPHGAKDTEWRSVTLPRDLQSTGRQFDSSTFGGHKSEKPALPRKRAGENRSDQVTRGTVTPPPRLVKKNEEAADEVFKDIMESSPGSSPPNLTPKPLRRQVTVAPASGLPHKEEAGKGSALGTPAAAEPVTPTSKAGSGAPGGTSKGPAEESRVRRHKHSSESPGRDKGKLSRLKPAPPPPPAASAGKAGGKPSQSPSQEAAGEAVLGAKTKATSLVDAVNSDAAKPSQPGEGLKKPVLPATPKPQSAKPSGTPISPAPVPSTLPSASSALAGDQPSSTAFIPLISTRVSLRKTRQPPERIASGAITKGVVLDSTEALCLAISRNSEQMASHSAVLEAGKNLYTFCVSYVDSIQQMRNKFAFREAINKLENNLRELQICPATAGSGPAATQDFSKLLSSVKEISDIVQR
UniProt P31749: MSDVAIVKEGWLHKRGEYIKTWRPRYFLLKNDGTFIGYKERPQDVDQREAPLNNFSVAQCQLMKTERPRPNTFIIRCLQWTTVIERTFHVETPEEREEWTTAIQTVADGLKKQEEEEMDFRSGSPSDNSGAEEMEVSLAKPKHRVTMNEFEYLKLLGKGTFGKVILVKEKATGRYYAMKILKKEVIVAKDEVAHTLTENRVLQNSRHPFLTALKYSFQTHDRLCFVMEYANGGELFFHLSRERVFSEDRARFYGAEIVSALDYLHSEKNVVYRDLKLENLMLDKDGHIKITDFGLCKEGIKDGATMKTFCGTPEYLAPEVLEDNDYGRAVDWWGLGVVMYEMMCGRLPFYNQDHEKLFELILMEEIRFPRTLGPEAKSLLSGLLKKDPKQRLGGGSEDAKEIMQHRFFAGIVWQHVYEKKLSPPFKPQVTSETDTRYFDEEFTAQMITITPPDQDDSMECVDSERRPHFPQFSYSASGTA
UniProt Q9UM73: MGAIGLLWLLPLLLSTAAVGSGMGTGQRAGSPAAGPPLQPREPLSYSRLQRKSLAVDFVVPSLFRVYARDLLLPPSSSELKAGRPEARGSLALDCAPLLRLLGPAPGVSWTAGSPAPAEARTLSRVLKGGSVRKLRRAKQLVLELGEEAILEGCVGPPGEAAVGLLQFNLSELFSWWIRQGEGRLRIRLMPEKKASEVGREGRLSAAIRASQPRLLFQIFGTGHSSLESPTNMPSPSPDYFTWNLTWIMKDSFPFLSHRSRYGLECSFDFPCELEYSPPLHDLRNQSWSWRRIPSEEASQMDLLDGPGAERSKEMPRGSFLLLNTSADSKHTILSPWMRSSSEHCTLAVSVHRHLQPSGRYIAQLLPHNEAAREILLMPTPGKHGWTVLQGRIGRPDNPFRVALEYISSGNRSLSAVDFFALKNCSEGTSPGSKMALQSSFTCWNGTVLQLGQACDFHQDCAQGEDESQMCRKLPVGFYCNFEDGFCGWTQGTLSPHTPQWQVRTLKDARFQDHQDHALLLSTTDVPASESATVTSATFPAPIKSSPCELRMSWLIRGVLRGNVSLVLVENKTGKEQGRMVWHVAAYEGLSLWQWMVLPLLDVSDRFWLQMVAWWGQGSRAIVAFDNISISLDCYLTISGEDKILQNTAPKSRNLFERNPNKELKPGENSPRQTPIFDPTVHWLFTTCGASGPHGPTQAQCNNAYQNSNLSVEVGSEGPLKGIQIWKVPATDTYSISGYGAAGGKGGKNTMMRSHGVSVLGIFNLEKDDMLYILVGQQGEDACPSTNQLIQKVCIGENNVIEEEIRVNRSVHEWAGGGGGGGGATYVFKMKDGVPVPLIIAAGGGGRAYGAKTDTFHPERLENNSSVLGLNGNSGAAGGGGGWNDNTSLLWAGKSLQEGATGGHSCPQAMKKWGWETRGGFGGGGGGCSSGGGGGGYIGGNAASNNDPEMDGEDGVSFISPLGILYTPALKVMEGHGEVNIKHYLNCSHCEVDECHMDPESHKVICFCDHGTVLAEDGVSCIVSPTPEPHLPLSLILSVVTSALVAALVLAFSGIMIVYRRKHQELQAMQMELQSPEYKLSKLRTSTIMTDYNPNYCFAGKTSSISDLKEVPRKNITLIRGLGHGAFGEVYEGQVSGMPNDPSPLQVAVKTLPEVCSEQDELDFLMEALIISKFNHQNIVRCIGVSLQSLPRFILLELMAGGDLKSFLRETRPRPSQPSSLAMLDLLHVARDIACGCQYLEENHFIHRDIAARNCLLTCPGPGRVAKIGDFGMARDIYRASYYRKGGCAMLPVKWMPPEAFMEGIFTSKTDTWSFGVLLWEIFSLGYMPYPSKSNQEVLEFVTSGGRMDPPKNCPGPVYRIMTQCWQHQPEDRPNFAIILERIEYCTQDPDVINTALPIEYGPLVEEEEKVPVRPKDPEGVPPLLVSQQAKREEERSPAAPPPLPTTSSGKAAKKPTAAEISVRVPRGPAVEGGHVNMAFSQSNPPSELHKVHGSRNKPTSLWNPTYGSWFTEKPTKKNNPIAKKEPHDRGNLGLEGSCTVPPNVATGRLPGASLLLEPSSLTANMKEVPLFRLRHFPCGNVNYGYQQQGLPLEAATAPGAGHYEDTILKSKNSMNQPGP
UniProt O14965: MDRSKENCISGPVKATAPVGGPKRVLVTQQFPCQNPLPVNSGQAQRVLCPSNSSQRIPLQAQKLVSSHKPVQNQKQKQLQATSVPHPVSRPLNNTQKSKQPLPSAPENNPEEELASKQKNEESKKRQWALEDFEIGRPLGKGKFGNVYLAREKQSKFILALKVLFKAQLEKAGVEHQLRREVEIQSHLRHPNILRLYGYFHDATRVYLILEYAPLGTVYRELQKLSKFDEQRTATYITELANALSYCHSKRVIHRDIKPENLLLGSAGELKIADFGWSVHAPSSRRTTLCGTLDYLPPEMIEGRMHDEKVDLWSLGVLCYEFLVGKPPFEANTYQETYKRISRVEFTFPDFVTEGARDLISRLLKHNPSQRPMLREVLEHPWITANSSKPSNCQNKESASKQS
UniProt Q96GD4, whole entry: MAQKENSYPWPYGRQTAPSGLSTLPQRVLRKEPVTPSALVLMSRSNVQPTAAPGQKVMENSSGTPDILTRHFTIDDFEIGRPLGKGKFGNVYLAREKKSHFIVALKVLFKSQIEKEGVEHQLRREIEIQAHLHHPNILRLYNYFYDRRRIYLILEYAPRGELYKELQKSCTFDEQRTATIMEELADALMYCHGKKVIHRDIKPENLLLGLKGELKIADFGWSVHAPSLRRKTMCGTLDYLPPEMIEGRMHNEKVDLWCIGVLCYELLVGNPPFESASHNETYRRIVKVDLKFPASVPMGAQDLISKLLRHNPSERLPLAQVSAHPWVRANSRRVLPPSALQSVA
UniProt Q9UQB9: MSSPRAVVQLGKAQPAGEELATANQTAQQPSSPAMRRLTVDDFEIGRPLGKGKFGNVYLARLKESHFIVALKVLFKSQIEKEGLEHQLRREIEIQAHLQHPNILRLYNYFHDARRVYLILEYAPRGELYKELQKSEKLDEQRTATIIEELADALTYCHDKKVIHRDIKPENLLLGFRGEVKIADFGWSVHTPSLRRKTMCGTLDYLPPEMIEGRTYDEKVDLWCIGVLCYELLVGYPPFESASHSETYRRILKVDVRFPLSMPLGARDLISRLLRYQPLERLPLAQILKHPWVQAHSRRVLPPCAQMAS
UniProt P51451: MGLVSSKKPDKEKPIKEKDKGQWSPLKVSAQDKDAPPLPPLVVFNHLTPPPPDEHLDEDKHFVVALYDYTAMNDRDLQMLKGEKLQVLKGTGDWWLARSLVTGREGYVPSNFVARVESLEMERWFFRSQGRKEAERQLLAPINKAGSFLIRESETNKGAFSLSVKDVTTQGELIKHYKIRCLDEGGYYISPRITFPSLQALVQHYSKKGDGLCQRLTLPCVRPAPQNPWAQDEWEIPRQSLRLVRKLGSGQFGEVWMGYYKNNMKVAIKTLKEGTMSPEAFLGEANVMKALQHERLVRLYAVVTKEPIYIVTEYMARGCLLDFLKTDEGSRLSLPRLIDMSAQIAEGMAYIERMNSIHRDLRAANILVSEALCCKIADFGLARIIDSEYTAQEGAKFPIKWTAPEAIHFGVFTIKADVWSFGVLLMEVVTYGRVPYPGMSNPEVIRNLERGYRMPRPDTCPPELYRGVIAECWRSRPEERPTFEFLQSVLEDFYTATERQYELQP
UniProt P51813: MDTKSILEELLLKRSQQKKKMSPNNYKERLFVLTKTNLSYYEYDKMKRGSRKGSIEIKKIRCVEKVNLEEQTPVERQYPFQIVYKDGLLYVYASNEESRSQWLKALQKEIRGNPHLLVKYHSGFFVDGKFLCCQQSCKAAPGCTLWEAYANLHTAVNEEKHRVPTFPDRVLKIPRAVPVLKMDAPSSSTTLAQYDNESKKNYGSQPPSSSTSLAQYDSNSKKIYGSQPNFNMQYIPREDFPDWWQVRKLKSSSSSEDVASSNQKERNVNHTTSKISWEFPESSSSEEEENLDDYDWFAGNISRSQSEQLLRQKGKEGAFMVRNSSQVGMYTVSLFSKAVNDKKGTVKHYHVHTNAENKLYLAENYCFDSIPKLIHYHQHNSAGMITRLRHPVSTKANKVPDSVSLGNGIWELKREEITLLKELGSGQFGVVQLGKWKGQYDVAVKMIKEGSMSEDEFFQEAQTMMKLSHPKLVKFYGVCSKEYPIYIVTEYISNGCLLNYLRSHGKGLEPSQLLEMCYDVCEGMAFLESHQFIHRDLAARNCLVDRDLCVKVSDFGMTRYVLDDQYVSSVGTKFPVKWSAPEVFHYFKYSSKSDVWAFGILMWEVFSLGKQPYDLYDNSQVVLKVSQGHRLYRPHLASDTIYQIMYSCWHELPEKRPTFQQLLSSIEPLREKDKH
UniProt P15056, whole entry, looked up: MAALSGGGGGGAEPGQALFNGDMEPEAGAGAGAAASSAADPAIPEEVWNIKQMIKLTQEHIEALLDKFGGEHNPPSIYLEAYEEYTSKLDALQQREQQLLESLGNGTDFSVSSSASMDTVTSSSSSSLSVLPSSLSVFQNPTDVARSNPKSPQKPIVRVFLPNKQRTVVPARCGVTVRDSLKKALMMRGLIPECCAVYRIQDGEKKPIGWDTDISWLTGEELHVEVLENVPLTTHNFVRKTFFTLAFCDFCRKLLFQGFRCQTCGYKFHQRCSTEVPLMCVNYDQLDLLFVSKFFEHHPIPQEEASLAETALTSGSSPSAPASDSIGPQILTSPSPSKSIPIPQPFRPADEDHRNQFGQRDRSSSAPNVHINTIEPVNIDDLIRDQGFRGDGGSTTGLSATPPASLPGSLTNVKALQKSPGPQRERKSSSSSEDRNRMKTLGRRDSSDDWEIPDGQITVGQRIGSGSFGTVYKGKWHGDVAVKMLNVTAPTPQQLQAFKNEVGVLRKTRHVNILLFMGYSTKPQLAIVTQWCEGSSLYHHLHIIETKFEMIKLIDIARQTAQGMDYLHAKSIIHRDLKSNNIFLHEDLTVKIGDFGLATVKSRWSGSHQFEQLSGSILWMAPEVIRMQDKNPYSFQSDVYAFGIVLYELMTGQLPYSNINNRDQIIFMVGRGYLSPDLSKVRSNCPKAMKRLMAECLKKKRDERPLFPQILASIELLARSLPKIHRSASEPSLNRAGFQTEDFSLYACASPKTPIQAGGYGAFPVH

Legend:
Experiment in all cases: kinase-Nluc reporter destabilization hit call (1 = scored as downregulated) (binary); higher = compound decreases kinase abundance
Conditions in all cases: K562; 2-18 h
ABL1 = ABL1 (UniProt P00519)
AKT1 = AKT1 (UniProt P31749)
ALK = ALK (UniProt Q9UM73)
ARAF = ARAF (UniProt P10398)
AURKA = AURKA (UniProt O14965)
AURKB = AURKB (UniProt Q96GD4)
AURKC = AURKC (UniProt Q9UQB9)
BLK = BLK (UniProt P51451)
BMX = BMX (UniProt P51813)
BRAF = BRAF (UniProt P15056)

Measured: kinase-Nluc reporter destabilization hit call

Cc1nc[nH]c1CN1CCN(C(=O)N[C@@H](CC(C)C)C(=O)O)[C@@H](Cc2ccccc2)C1=O (10 µM)
inactive: ABL1 = 0 | AKT1 = 0 | ALK 0 | ARAF 0 | AURKA 0 | AURKB 0 | AURKC 0 | BLK 0 | BMX 0 | BRAF 0

O=C(Nc1ccc(Cl)cc1)C1CCCN(C(=O)c2cc(C(F)(F)F)cc(C(F)(F)F)c2)C1 (stereo not given) (10 µM)
inactive: ABL1 = 0 | AKT1 = 0 | ALK 0 | ARAF 0 | AURKA 0 | AURKB 0 | AURKC 0 | BLK 0 | BMX 0 | BRAF 0

Cc1ccc(NC(=O)Nc2cc(C(F)(F)F)ccc2F)cc1Nc1ccc2c(c1)NC(=O)/C2=C\c1ccc[nH]1 (2.5 µM)
inactive: ABL1 = 0 | AKT1 = 0 | ALK 0 | ARAF 0 | AURKA 0 | AURKB 0 | AURKC 0 | BLK 0 | BMX 0 | BRAF 0

O=C(ON=C1c2ccccc2-c2nc3ccccc3nc21)c1ccco1 (2.5 µM)
inactive: ABL1 = 0 | AKT1 = 0 | ALK 0 | ARAF 0 | AURKA 0 | AURKB 0 | AURKC 0 | BLK 0 | BMX 0 | BRAF 0

N[C@@H]1CCCN(c2c(/C=C3\SC(=O)NC3=O)cccc2-c2ccccc2)C1 (10 µM)
inactive: ABL1 = 0 | AKT1 = 0 | ALK 0 | ARAF 0 | AURKA 0 | AURKB 0 | AURKC 0 | BLK 0 | BMX 0 | BRAF 0

CNC(=O)c1cc2c(Oc3ccc(NC(=O)C4(C(=O)Nc5ccc(F)cc5)CC4)cc3)ccnc2cc1OC (2.5 µM)
inactive: ABL1 = 0 | AKT1 = 0 | ALK 0 | ARAF 0 | AURKA 0 | AURKB 0 | AURKC 0 | BLK 0 | BMX 0 | BRAF 0

O=C1OC(/C=C/c2ccccc2)=NC/1=C\c1cccnc1 (10 µM)
inactive: ABL1 = 0 | AKT1 = 0 | ALK 0 | ARAF 0 | AURKA 0 | AURKB 0 | AURKC 0 | BLK 0 | BMX 0 | BRAF 0

NC(=O)c1cnc(-c2ccc(C3(N)CCC3)cc2)c(-c2ccccc2)c1 (10 µM)
inactive: ABL1 = 0 | AKT1 = 0 | ALK 0 | ARAF 0 | AURKA 0 | AURKB 0 | AURKC 0 | BLK 0 | BMX 0 | BRAF 0

Cc1cc(C(=O)NC(C)(C)C)cc(C#Cc2ccc3c4c(oc3c2)C(C)(C)c2cc(NS(C)(=O)=O)ccc2C4=O)n1 (10 µM)
inactive: ABL1 = 0 | AKT1 = 0 | ALK 0 | ARAF 0 | AURKA 0 | AURKB 0 | AURKC 0 | BLK 0 | BMX 0 | BRAF 0

O=C1Nc2ccc(CN3C(=O)CSC3=O)cc2/C1=C/c1cc(CN2CCOCC2)c[nH]1 (10 µM)
inactive: ABL1 = 0 | AKT1 = 0 | ALK 0 | ARAF 0 | AURKA 0 | AURKB 0 | AURKC 0 | BLK 0 | BMX 0 | BRAF 0

Nc1nc(N)c2nc(-c3cccc(O)c3)c(-c3cccc(O)c3)nc2n1 (10 µM)
inactive: ABL1 = 0 | AKT1 = 0 | ALK 0 | ARAF 0 | AURKA 0 | AURKB 0 | AURKC 0 | BLK 0 | BMX 0 | BRAF 0

In the list so far, these have a CF3 group.
O=C(Nc1ccc(Cl)cc1)C1CCCN(C(=O)c2cc(C(F)(F)F)cc(C(F)(F)F)c2)C1 (stereo not given) (10 µM)
inactive: ABL1 = 0 | AKT1 = 0 | ALK 0 | ARAF 0 | AURKA 0 | AURKB 0 | AURKC 0 | BLK 0 | BMX 0 | BRAF 0

Cc1ccc(NC(=O)Nc2cc(C(F)(F)F)ccc2F)cc1Nc1ccc2c(c1)NC(=O)/C2=C\c1ccc[nH]1 (2.5 µM)
inactive: ABL1 = 0 | AKT1 = 0 | ALK 0 | ARAF 0 | AURKA 0 | AURKB 0 | AURKC 0 | BLK 0 | BMX 0 | BRAF 0

(cont.)

CN1CCN(c2cc(-c3ccncc3)c(-c3ccc4ccccc4c3)nn2)CC1 (10 µM)
inactive: ABL1 = 0 | AKT1 = 0 | ALK 0 | ARAF 0 | AURKA 0 | AURKB 0 | AURKC 0 | BLK 0 | BMX 0 | BRAF 0

C=C1C(=O)[C@@]23[C@H](O)C[C@@H]4C(C)(C)C(=O)CC[C@@]4(C)[C@@H]2CC[C@@H]1[C@H]3O [Glaucocalyxin A] (2.5 µM)
inactive: ABL1 = 0 | AKT1 = 0 | ALK 0 | ARAF 0 | AURKA 0 | AURKB 0 | AURKC 0 | BLK 0 | BMX 0 | BRAF 0

N#C/C(=C\c1ccc(O)c(O)c1)C(=O)O [Tyrphostin AG30] (10 µM)
inactive: ABL1 = 0 | AKT1 = 0 | ALK 0 | ARAF 0 | AURKA 0 | AURKB 0 | AURKC 0 | BLK 0 | BMX 0 | BRAF 0

Cc1cccc(-c2[nH]ncc2-c2ccnc3ccccc23)n1 (10 µM)
inactive: ABL1 = 0 | AKT1 = 0 | ALK 0 | ARAF 0 | AURKA 0 | AURKB 0 | AURKC 0 | BLK 0 | BMX 0 | BRAF 0

COC(=O)/C=C/c1ccccc1 [Methyl cinnamate] (10 µM)
inactive: ABL1 = 0 | AKT1 = 0 | ALK 0 | ARAF 0 | AURKA 0 | AURKB 0 | AURKC 0 | BLK 0 | BMX 0 | BRAF 0

O=C(O)c1cc(N(Cc2ccccc2O)Cc2cc(O)ccc2O)ccc1O [Lavendustin A] (10 µM)
inactive: ABL1 = 0 | AKT1 = 0 | ALK 0 | ARAF 0 | AURKA 0 | AURKB 0 | AURKC 0 | BLK 0 | BMX 0 | BRAF 0

CC(C)n1c(=O)n(C)c2cnc3cc(F)c(-c4ccc(OCCCN5CCCCC5)nc4)cc3c21 (10 µM)
inactive: ABL1 = 0 | AKT1 = 0 | ALK 0 | ARAF 0 | AURKA 0 | AURKB 0 | AURKC 0 | BLK 0 | BMX 0 | BRAF 0

C=CC(=O)Nc1cc(Nc2nccc(-c3cn(C)c4ccccc34)n2)c(OC)cc1OCCN(C)C [Rezivertinib] (2.5 µM)
inactive: ABL1 = 0 | AKT1 = 0 | ALK 0 | ARAF 0 | AURKA 0 | AURKB 0 | AURKC 0 | BLK 0 | BMX 0 | BRAF 0

COc1ccc(Nc2ncc(C(F)(F)F)c(NC3CC3)n2)cc1OC (10 µM)
inactive: ABL1 = 0 | AKT1 = 0 | ALK 0 | ARAF 0 | AURKA 0 | AURKB 0 | AURKC 0 | BLK 0 | BMX 0 | BRAF 0

COCCOCCc1c(C)c2cc(OC)c(O)c(C=O)c2oc1=O (10 µM)
inactive: ABL1 = 0 | AKT1 = 0 | ALK 0 | ARAF 0 | AURKA 0 | AURKB 0 | AURKC 0 | BLK 0 | BMX 0 | BRAF 0

CC(O)(C#Cc1ccc2c(c1)N(c1nc(N)ncc1Cl)CC2)c1nccs1 (stereo not given) (2.5 µM)
inactive: ABL1 = 0 | AKT1 = 0 | ALK 0 | ARAF 0 | AURKA 0 | AURKB 0 | AURKC 0 | BLK 0 | BMX 0 | BRAF 0

NCC1CCC(CNc2nc(NCc3ccccc3OC(F)(F)F)ncc2[N+](=O)[O-])CC1 (stereo not given) [PKC-theta inhibitor] (10 µM)
active: ABL1 = 1
inactive: AKT1 = 0 | ALK 0 | ARAF 0 | AURKA 0 | AURKB 0 | AURKC 0 | BLK 0 | BMX 0 | BRAF 0

COc1cc2c(cc1Nc1ncc(C(N)=O)c(Nc3c(F)cccc3C(F)(F)F)n1)CN(C)CC2 (2.5 µM)
inactive: ABL1 = 0 | AKT1 = 0 | ALK 0 | ARAF 0 | AURKA 0 | AURKB 0 | AURKC 0 | BLK 0 | BMX 0 | BRAF 0

CCn1c(-c2nonc2N)nc2c(C#CC(C)(C)O)ncc(OC[C@H]3CCCNC3)c21 (10 µM)
inactive: ABL1 = 0 | AKT1 = 0 | ALK 0 | ARAF 0 | AURKA 0 | AURKB 0 | AURKC 0 | BLK 0 | BMX 0 | BRAF 0

CCCn1/c(=N/C(=O)c2cccc(C(N)=O)c2)[nH]c2ccccc21 [Takinib] (10 µM)
inactive: ABL1 = 0 | AKT1 = 0 | ALK 0 | ARAF 0 | AURKA 0 | AURKB 0 | AURKC 0 | BLK 0 | BMX 0 | BRAF 0

O=c1cc(-c2ccccc2)oc2cc(O[C@@H]3O[C@H](CO[C@@H]4O[C@H](CO)[C@@H](O)[C@H](O)[C@H]4O)[C@@H](O)[C@H](O)[C@H]3O)c(O)c(O)c12 [Oroxin B] (10 µM)
inactive: ABL1 = 0 | AKT1 = 0 | ALK 0 | ARAF 0 | AURKA 0 | AURKB 0 | AURKC 0 | BLK 0 | BMX 0 | BRAF 0

CO[C@H]1C[C@@H]2CC[C@@H](C)[C@@](O)(O2)C(=O)C(=O)N2CCCC[C@H]2C(=O)O[C@H]([C@H](C)C[C@@H]2CC[C@@H](OC(=O)C(C)(CO)CO)[C@H](OC)C2)CC(=O)[C@H](C)/C=C(\C)[C@@H](O)[C@@H](OC)C(=O)[C@H](C)C[C@H](C)/C=C/C=C/C=C/1C [Temsirolimus] (2.5 µM)
inactive: ABL1 = 0 | AKT1 = 0 | ALK 0 | ARAF 0 | AURKA 0 | AURKB 0 | AURKC 0 | BLK 0 | BMX 0 | BRAF 0

C=CC(=O)Nc1cccc(Oc2nc(Nc3ccc(N4CCN(C)CC4)c(F)c3)nc3[nH]ccc23)c1 [Avitinib (maleate)] (2.5 µM)
active: ABL1 = 1
inactive: AKT1 = 0 | ALK 0 | ARAF 0 | AURKA 0 | AURKB 0 | AURKC 0 | BLK 0 | BMX 0 | BRAF 0

CC(C)=CCC/C(C)=C/CC/C(C)=C/C=C/C(C)=C/C(=O)O [Peretinoin] (10 µM)
inactive: ABL1 = 0 | AKT1 = 0 | ALK 0 | ARAF 0 | AURKA 0 | AURKB 0 | AURKC 0 | BLK 0 | BMX 0 | BRAF 0
